Results are given in words; binding and its absence hold for the method and conditions named. In cells and extracts the contact can be indirect. Binding can be weak; no strength is given.
T1: ornithine transcarbamylase (OTC), endogenous in mouse liver mitochondria (mouse (endogenous in mouse liver mitochondria)) (UniProt P11725)
T1 sequence: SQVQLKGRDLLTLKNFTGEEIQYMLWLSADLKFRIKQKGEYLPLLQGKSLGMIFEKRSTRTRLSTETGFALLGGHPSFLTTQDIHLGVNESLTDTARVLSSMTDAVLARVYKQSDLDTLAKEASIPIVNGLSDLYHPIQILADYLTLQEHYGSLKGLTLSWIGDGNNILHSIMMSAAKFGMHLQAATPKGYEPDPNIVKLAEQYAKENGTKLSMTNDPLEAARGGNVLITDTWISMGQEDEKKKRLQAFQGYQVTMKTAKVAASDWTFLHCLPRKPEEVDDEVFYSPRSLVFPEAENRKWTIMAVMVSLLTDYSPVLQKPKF

T2: carbamylphosphate synthetase 1 (CPS1), endogenous in mouse liver mitochondria (mouse (endogenous in mouse liver mitochondria)) (UniProt Q8C196)
T2 sequence: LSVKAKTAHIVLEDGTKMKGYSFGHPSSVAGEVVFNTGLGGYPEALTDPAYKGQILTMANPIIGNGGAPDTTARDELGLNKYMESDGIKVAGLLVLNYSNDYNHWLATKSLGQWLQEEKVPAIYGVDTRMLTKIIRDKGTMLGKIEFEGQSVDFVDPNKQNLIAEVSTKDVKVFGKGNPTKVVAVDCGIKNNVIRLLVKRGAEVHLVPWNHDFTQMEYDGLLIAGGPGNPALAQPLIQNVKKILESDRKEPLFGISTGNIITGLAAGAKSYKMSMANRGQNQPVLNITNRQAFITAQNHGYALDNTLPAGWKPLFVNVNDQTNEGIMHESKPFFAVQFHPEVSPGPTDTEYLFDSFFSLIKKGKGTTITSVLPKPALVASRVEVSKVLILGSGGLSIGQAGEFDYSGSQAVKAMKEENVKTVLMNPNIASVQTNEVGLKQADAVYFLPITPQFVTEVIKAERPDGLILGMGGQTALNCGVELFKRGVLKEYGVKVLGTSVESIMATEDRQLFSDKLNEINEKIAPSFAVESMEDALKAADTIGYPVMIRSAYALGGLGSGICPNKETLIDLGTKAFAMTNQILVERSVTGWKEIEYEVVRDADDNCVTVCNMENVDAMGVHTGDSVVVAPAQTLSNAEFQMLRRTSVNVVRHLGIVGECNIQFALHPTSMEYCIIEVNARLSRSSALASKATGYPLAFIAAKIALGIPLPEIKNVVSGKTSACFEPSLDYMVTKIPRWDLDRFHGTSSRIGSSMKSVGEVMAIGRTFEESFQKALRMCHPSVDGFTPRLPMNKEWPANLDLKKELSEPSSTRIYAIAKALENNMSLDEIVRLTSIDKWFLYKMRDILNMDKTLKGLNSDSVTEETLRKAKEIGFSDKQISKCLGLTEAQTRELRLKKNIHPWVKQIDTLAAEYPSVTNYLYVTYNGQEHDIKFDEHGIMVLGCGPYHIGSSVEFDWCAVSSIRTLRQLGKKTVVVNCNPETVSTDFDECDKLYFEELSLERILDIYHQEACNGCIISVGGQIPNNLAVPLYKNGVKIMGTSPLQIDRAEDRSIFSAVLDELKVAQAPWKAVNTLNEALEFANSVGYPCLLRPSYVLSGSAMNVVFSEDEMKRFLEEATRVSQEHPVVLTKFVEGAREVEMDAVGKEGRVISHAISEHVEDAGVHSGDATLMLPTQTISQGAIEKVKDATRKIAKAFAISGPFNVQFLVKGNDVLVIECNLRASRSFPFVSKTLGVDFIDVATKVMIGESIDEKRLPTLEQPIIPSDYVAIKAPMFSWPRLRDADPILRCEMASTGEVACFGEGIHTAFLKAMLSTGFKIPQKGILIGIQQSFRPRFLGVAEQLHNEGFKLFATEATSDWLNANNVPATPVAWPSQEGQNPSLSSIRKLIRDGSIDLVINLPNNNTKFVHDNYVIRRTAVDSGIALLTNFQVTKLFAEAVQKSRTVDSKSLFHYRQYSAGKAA


Key:
[1] = molecular target: T1, ornithine transcarbamylase (OTC), endogenous in mouse liver mitochondria (mouse (endogenous in mouse liver mitochondria)); assay: co-IP; mouse liver mitochondrial lysate (PBS, 2% CHAPS; 1 mg/ml protein for anti-OTC and anti-CPS1, 5 mg/ml for anti-NAGS) with magnetic beads cross-linked to antibodies against NAGS, CPS1 or OTC, 20°C for 10 min, five washes with PBS with 0.05% Triton X-100; immunoblot for NAGS and CPS1; non-specific IgG as negative control
[2] = molecular target: T2, carbamylphosphate synthetase 1 (CPS1), endogenous in mouse liver mitochondria (mouse (endogenous in mouse liver mitochondria)); assay: as above
[3] = molecular target: T2, carbamylphosphate synthetase 1 (CPS1), endogenous in mouse liver mitochondria (mouse (endogenous in mouse liver mitochondria)); assay: co-IP; competition experiment: mitochondrial lysate (2 mg/ml protein) mixed 1:1 (v/v) with mVS, revVS or shVS, added to magnetic beads cross-linked to anti-CPS1 antibodies; immunoblot for NAGS, densitometry of NAGS-M bands
[4] = molecular target: N-acetylglutamate synthase (NAGS), endogenous in mouse liver mitochondria (mouse (endogenous in mouse liver mitochondria)); assay: co-IP; mouse liver mitochondrial lysate (PBS, 2% CHAPS; 1 mg/ml protein for anti-OTC and anti-CPS1, 5 mg/ml for anti-NAGS) with magnetic beads cross-linked to antibodies against NAGS, CPS1 or OTC, 20°C for 10 min, five washes with PBS with 0.05% Triton X-100; immunoblot for NAGS and CPS1; non-specific IgG as negative control

binding [1]	binding [2]	binding [3]	binding [4]	Molecule
binds	binds	binds		N-acetylglutamate synthase (NAGS), endogenous in mouse liver mitochondria (enzyme)
			binds	carbamylphosphate synthetase 1 (CPS1), endogenous in mouse liver mitochondria (enzyme, UniProt Q8C196 39-1500) LSVKAKTAHIVLEDGTKMKGYSFGHPSSVAGEVVFNTGLGGYPEALTDPAYKGQILTMANPIIGNGGAPDTTARDELGLNKYMESDGIKVAGLLVLNYSNDYNHWLATKSLGQWLQEEKVPAIYGVDTRMLTKIIRDKGTMLGKIEFEGQSVDFVDPNKQNLIAEVSTKDVKVFGKGNPTKVVAVDCGIKNNVIRLLVKRGAEVHLVPWNHDFTQMEYDGLLIAGGPGNPALAQPLIQNVKKILESDRKEPLFGISTGNIITGLAAGAKSYKMSMANRGQNQPVLNITNRQAFITAQNHGYALDNTLPAGWKPLFVNVNDQTNEGIMHESKPFFAVQFHPEVSPGPTDTEYLFDSFFSLIKKGKGTTITSVLPKPALVASRVEVSKVLILGSGGLSIGQAGEFDYSGSQAVKAMKEENVKTVLMNPNIASVQTNEVGLKQADAVYFLPITPQFVTEVIKAERPDGLILGMGGQTALNCGVELFKRGVLKEYGVKVLGTSVESIMATEDRQLFSDKLNEINEKIAPSFAVESMEDALKAADTIGYPVMIRSAYALGGLGSGICPNKETLIDLGTKAFAMTNQILVERSVTGWKEIEYEVVRDADDNCVTVCNMENVDAMGVHTGDSVVVAPAQTLSNAEFQMLRRTSVNVVRHLGIVGECNIQFALHPTSMEYCIIEVNARLSRSSALASKATGYPLAFIAAKIALGIPLPEIKNVVSGKTSACFEPSLDYMVTKIPRWDLDRFHGTSSRIGSSMKSVGEVMAIGRTFEESFQKALRMCHPSVDGFTPRLPMNKEWPANLDLKKELSEPSSTRIYAIAKALENNMSLDEIVRLTSIDKWFLYKMRDILNMDKTLKGLNSDSVTEETLRKAKEIGFSDKQISKCLGLTEAQTRELRLKKNIHPWVKQIDTLAAEYPSVTNYLYVTYNGQEHDIKFDEHGIMVLGCGPYHIGSSVEFDWCAVSSIRTLRQLGKKTVVVNCNPETVSTDFDECDKLYFEELSLERILDIYHQEACNGCIISVGGQIPNNLAVPLYKNGVKIMGTSPLQIDRAEDRSIFSAVLDELKVAQAPWKAVNTLNEALEFANSVGYPCLLRPSYVLSGSAMNVVFSEDEMKRFLEEATRVSQEHPVVLTKFVEGAREVEMDAVGKEGRVISHAISEHVEDAGVHSGDATLMLPTQTISQGAIEKVKDATRKIAKAFAISGPFNVQFLVKGNDVLVIECNLRASRSFPFVSKTLGVDFIDVATKVMIGESIDEKRLPTLEQPIIPSDYVAIKAPMFSWPRLRDADPILRCEMASTGEVACFGEGIHTAFLKAMLSTGFKIPQKGILIGIQQSFRPRFLGVAEQLHNEGFKLFATEATSDWLNANNVPATPVAWPSQEGQNPSLSSIRKLIRDGSIDLVINLPNNNTKFVHDNYVIRRTAVDSGIALLTNFQVTKLFAEAVQKSRTVDSKSLFHYRQYSAGKAA
